Entries after “also recorded” stand apart in the source; their conditions may differ. Not every detail of the peptide structures is certain; ends, links or a residue may be inferred. No end group written: not given here.
How the values were obtained:
[1] = test system: IL-1β production by mouse peritoneal macrophages; experiment: Cytokine measurement (ELISA), IL-1β; format: cell-based, C57BL/6 mice; details: any dose tested (5, 10, 20 μg/mL)
[2] = test system: IL-10 production by mouse peritoneal macrophages; experiment: Cytokine measurement (ELISA), IL-10; format: cell-based, C57BL/6 mice; details: for IL-10 production, LPS-stimulated cells: peptide 5, 10 and 20 μg/mL, LPS 0.5 μg/mL; for IL-10 production (summary statement): stimulation state and dose not stated
Escherichia coli = details: endogenous peptide, preliminary data, Conlon et al., 2013; cited from earlier work
[3] = test system: TNF-α production by mouse peritoneal macrophages; experiment: Cytokine measurement (ELISA), TNF-α; format: cell-based, C57BL/6 mice; details: any dose tested (5, 10, 20 μg/mL)
[4] = test system: IL-23 production by mouse peritoneal macrophages; experiment: Cytokine measurement (ELISA), IL-23; format: cell-based, C57BL/6 mice; details: all tested doses (5, 10, and 20 μg/mL), 24 hrs
S. aureus (ATCC 25923) = format: cell-based; details: 4×MIC, Mueller-Hinton broth, 37° C.
Method: In order to determine the rate at which the peptides caused cell death, log-phase cultures of S. aureus (ATCC 25923) and E. coli (ATCC 25726) at a concentration of 0.5×10^6 CFU/mL in Mueller-Hinton broth (1 ml) were incubated in polypropylene tubes at 37° C. with Ps-1Pb at a concentration of 4×MIC. Control incubations in the absence of peptide were also carried out. Aliquots of 25 μl were removed at the time intervals 0, 0.5, 1, 2, 3, 4 and 24 hrs and the CFU of the serially diluted samples was determined on Mueller-Hinton agar plates. The time required for 99.9% cell death was determined.

E. coli (ATCC 25726) = experiment: Time kill assay, E. coli; format: cell-based; details: 4×MIC
[5] = test system: IL-6 production by mouse peritoneal macrophages; experiment: Cytokine measurement (ELISA), IL-6; format: cell-based, C57BL/6 mice; details: for IL-6 production (summary statement): stimulation state and dose not stated

| Sequence | IL-1β production, unstimulated and LPS-stimulated macrophages [1] | IL-10 production, LPS-stimulated cells ([2]; 24 hrs) | IL-10 production (summary statement) [2] | growth of reference strain of Escherichia coli (Escherichia coli) | TNF-α production, unstimulated and LPS-stimulated macrophages [3] | IL-23 production, unstimulated and LPS-stimulated macrophages ([4]; listed as Ps-1Pb) | time to 99.9% killing of S. aureus (S. aureus (ATCC 25923)) [min] | time to 99.9% cell death of E. coli (E. coli (ATCC 25726); Mueller-Hinton broth, 37° C.) [min] | cell death, E. coli (E. coli (ATCC 25726); within 30 min) [%] | IL-6 production, unstimulated and LPS-stimulated cells, highest dose ([5]; highest dose tested (20 μg/ml), 24 hrs) | IL-6 production (summary statement) [5] | IL-10 production, unstimulated cells ([2]; peptide 20 μg/ml, 24 hrs) | IL-23 production, unstimulated and LPS-stimulated macrophages ([4]; listed as Ps-2 Pa) | IL-23 production, unstimulated and LPS-stimulated macrophages ([4]; listed as Ps-2Pb) | IL-6 production, unstimulated and LPS-stimulated cells ([5]; peptide 5, 10 and 20 μg/mL, 24 hrs) |
| --- | --- | --- | --- | --- | --- | --- | --- | --- | --- | --- | --- | --- | --- | --- | --- |
| IKIPSFFRNILKKVGKEAVSLIAGALKQS [Pseudhymenochirin-1Pb] | no significant effect | significant inhibition | inhibiting production | inhibited the growth | no significant effect | significantly increased; also recorded: potently stimulate | ≤ 180 | ≤ 30 | 99.9 | significantly inhibited | inhibiting production | – | – | – | – |
| GIFPIFAKLLGKVIKVASSLISKGRTE [Pseudhymenochirin-2Pa, Pseudhymenochirin-2 Pa] | no significant effect | dose-dependent inhibition | inhibiting production | inhibited the growth | no significant effect | – | – | – | – | – | inhibiting production | significantly inhibited | significantly increased | potently stimulate | strongly and dose-dependently inhibited |
